# In PMC5373596, “Metal-dependent SpoIIE oligomerization stabilizes FtsZ during asymmetric division in Bacillus subtilis” (PLoS ONE, 2017):
# These are yes or no findings as the source states them, for the method shown. Tags and fused reporters may be left off the sequences shown.
# B1: MBP-strep-tag-SpoIIEcyt fusion protein (cytoplasmic part of SpoIIE, domains II and III) (domain or fragment, B. subtilis 168, UniProt P37475 326-827, looked up)
# chain: RKVARYIPGTVEHLQEQQQYARKIRDVTAQKVDQFSNVFHALSESFATFYQASDEQTDDSEVDLFLSKITEHSCQTCYKKNRCWVQNFDKTYDLMKQVMLETEEKEYASNRRLKKEFQQYCSKSKQVEELIEDELAHHHAHLTLKKKVQDSRRLVAEQLLGVSEVMADFSREIKREREQHFLQEEQIIEALQHFGIEIQHVEIYSLEQGNIDIEMTIPFSGHGESEKIIAPMLSDILEEQILVKAEQHSPHPNGYSHVAFGSTKSYRVSTGAAHAAKGGGLVSGDSYSMMELGARKYAAAISDGMGNGARAHFESNETIKLLEKILESGIDEKIAIKTINSILSLRTTDEIYSTLDLSIIDLQDASCKFLKVGSTPSFIKRGDQVMKVQASNLPIGIINEFDVEVVSEQLKAGDLLIMMSDGIFEGPKHVENHDLWMKRKMKGLKTNDPQEIADLLMEEVIRTRSGQIEDDMTVVVVRIDHNTPKWASIPVPAIFQNKQEIS
# notes: SpoIIE of Bacillus subtilis 168, domains II and III (cytoplasmic part), amino acids 326-827; called a 501 residue fragment; Order on the chain: MBP (from pMalC2x), short strep-tag, SpoIIE 326-827; Co-purifies with about 2 Fe per protein; also called ms-SpoIIEcyt; source: E. coli BL21-RIL, purified (amylose resin, eluted with maltose); not shown: MBP, N-terminal, kept; strep-tag, N-terminal, kept
# How the values were obtained:
# [1] = target: MBP-strep-tag-SpoIIEcyt fusion protein (cytoplasmic part of SpoIIE, domains II and III) (B. subtilis 168) (UniProt P37475); assay: co-sedimentation; 10 μM ms-SpoIIEcyt in 50 mM MES/NaOH pH 6.5, 50 mM KCl with 1 mM EDTA (20 min), or with 10 mM EDTA added after the MnCl2 step (40 min); spun at 186,000 x g, supernatant and pellet on SDS-PAGE; both purified
# [2] = target: MBP-strep-tag-SpoIIEcyt fusion protein (cytoplasmic part of SpoIIE, domains II and III) (B. subtilis 168) (UniProt P37475); assay: transmission electron microscopy; ms-SpoIIEcyt after incubation with 5 mM EDTA; both purified
binder,measurement,setting,value
B1,binding,[1],no binding (condition: with 1 mM EDTA (10 μM protein))
same,binding,[2],no binding (condition: with 5 mM EDTA)
